Experimental data: patent EP1789452B1, “RELAXIN-CHIMERIC POLYPEPTIDES AND THEIR PREPARATION AND USE” (Janssen Pharmaceutica NV, priority 2004, dated 2006)
These are yes or no findings as the source states them, for the method shown. Some results given as binding are weak or reduced against the parent protein; the word gives no strength.

Chains of the proteins cited; added tags and fusions are not shown. Lines headed by an entry give the natural chain unless they say otherwise; changes in a name come on top.
UniProt Q8WXD0: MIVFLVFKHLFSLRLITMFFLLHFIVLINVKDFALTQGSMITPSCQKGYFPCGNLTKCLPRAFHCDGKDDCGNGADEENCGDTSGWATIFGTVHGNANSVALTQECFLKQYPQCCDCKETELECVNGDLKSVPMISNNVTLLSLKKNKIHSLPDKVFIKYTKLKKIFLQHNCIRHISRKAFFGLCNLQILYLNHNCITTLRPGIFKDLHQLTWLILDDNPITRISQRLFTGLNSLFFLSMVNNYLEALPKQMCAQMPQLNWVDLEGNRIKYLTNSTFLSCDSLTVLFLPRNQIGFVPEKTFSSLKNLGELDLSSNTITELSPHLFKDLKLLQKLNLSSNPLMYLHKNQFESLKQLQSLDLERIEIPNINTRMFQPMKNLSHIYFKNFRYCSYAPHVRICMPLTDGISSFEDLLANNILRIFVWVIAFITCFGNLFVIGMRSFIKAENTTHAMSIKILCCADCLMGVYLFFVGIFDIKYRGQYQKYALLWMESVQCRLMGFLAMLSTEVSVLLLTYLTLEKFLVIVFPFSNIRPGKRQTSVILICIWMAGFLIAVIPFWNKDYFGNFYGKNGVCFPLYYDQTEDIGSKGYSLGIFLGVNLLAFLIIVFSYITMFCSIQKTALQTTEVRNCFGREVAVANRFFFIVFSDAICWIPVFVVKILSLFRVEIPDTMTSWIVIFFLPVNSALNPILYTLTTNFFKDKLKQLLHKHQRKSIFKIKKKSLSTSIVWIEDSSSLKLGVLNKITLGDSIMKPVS
UniProt P04808: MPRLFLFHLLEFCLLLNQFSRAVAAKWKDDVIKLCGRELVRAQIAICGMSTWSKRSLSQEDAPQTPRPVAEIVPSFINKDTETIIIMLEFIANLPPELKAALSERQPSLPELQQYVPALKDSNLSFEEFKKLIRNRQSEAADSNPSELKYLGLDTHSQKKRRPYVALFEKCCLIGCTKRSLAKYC

Tests used:
human LGR7 (human) [1] = target: T1, human LGR7 (human) (UniProt Q9HBX9); test: radioligand competition, human LGR7
T1 sequence (looked up): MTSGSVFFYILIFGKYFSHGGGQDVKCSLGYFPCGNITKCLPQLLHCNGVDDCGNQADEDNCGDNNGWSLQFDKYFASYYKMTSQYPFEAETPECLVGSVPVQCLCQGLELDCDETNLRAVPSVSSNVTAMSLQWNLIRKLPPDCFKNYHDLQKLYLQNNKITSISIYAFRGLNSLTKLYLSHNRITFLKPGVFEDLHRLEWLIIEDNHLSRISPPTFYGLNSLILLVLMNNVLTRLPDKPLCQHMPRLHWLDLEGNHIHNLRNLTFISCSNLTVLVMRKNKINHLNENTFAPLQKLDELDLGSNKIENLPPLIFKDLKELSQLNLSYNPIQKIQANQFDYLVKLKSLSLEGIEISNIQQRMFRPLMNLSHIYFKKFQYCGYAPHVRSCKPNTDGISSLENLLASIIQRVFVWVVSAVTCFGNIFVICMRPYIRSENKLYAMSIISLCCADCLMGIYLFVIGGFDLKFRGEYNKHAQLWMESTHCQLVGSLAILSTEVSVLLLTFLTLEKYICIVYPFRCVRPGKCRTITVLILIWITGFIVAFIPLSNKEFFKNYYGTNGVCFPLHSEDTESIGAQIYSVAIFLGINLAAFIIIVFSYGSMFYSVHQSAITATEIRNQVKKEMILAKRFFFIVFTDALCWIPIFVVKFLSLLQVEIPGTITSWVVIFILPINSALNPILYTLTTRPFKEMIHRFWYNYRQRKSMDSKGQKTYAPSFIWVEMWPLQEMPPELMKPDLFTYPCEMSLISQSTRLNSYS

human LGR8 (human) [2] = target: human LGR8 (human) (UniProt Q8WXD0); test: radioligand competition with [125I]-INSL3, human LGR8
human LGR7 (human) [3] = target: T1, human LGR7 (human); test: discussion of radioligand binding and functional assays
human LGR8 (human) [4] = target: human LGR8 (human) (UniProt Q8WXD0); test: as above

binding (human LGR7 (human) [1]): binds
binding (human LGR8 (human) [2]): binds
binding (human LGR7 (human) [3]): binds
binding (human LGR8 (human) [4]): binds
Substance: Relaxin-3/Relaxin-1 (R3/R1) chimeric polypeptide (from UniProt P04808 162-185) (ligand)
